Assay results: PMC8934670
Construct, isoform or probe ends are uncertain for at least one entry. The comparison behind a weaker result is the experiment's own reference, which may not be listed here.

Sequences of proteins named here, by UniProt entry; tags and fusion partners are left off.
UniProt Q8N884, whole entry: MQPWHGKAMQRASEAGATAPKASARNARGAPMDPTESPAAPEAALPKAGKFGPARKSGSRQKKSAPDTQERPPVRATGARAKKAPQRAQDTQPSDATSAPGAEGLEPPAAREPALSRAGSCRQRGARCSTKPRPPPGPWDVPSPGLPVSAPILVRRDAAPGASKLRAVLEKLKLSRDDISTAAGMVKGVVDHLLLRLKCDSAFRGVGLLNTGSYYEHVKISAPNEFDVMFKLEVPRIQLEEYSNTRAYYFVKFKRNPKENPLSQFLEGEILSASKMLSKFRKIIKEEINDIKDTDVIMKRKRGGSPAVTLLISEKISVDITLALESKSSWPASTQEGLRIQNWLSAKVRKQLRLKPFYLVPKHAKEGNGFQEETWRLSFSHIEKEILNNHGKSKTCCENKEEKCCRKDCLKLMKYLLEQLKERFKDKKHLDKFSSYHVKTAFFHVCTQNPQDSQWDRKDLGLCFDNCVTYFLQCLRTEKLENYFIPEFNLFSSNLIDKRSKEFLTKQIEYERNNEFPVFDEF

Target: cGAS (human) (UniProt Q8N884)
Assay: EMSA
Details: 5-10 uM cGAS, 25-50 fmol DNA, 1 mM MgCl2, text: substantially reduced, legend: not bound; 10 mM HEPES-NaOH pH 7.5, 100 mM NaCl, 1 mM DTT, 1 mM MgCl2, 20 ug/ml BSA, 25 C, 30 min; native PAGE (6% in Methods, 5% in legends), 0.5x TBE; recombinant protein; protein details: His (pET28a); label: 32P

| Sequence | binding result |
| --- | --- |
| TACAGATCTACTAGTGATCTATGACTGATCTGTACATGATCTACACCAAAGAGCAGTGTAGATCATGTACA [5'-resected substrate] | binds more weakly |
| TGTACATGATCTACACCAAAGAGCAGTGTAGATCATGTACAGATCAGTCATAGATCACTAGTAGATCTGTA [3'-resected substrate] | binds more weakly |
